Consider 66 sequences from PubChem BioAssay AID1347423 (Functional Genomics Laboratory (NCATS/FGL), 2020).

Among all 52,000 sequences or so, about 210 (0.4%) were called active.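 How the source made its calls: active means gene whose silencing raises cell survival under the drug, median off-target-corrected z-score across its silencing RNAs 2 or more; inactive means the rest.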 The list shows a part of the results.

The assay can be described thus: Resistance to Poly (ADP-Ribose) Polymerase inhibitor: Gene Identification via Genome-wide siRNA Screen. Conditions: mouse BRCA2 R2336H ES cells, olaparib, CellTiter-Glo viability; stronger effect = higher value. A digest of the protocol:
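Mouse BRCA2 R2336H ES cells were reverse-transfected with siRNA (20 nM final), treated at 48 h with 500 nM olaparib, and read by CellTiter-Glo after 72 h. Scores: MAD-based z per siRNA, median per gene, seed off-target correction.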
For orientation: In ATP-based viability assays light output follows the ATP content of the culture.
With GCUCAAGGCGACCUGUAUGTT against Map3k1, the z-score was inactive: -0.256. The figure for “GCUCUGUUGUGGAUGCAAUTT against 2900060P06Rik” is inactive: -0.307; for “GGAUGUGGUCUCUAUACCGTT against 1600012H06Rik” it is inactive: 1.57; for “CCUCCCAGAUUGCUCUAAUTT against 8430408G22Rik” it is inactive: -0.92. As to GCUAGUCAUUUACAGAUCATT against Spesp1, the z-score is inactive: -1.18. Take CCAGGUCGAACAUUUAAACTT against Ifit3: the z-score was inactive: 1.21. The figure for GUUUACACUUUCAGGAAUATT against Olfr1218 is inactive: -0.469; for GGACUACGGCAAAGAUGAGTT against Mrc2 it is inactive: -2.53; for CCUGGACCAGAAUAAACACTT against AI413414 it is inactive: 2.47. The figure for GGCCUAACAGAACUGUGAGTT against P2ry2 is inactive: -2.05. GGAACACAGAGAAUACAAATT against Sdccag8: the z-score was inactive: -1.15. The figure for CGGUAGAAGGCUUAGGCAATT against Aox1 is inactive: -1.97; for GCAUGUUGAAAUCAAUUGATT against Cacnb4 it is inactive: 0.648; for GGAGAAGGACCAUCUAAAGTT against Cmah it is inactive: -0.0702. The figure for “GGAAAUGAUACCUUACCACTT against 2610041B18Rik” is inactive: -0.277; for GCGUGAGAAAACCUUGGAUTT against Tas2r115 it is inactive: -0.768; for “GGUAAACGAUCCAGAUGCATT against A730055C05Rik” it is inactive: -0.225. The figure for “GGAUCUGGUCUUAACUUAATT against 5830457O10Rik” is inactive: 0.126; for GGCAUACCGUAAAAGUGGCTT against Olfr73 it is inactive: 0.372. Turning to “GGGUUAGACGAAGAUGAGATT against 2310065K24Rik”, the z-score is inactive: 0.908. The figure for GGACAUGGAUUUCAUCAUGTT against Slc35a5 is inactive: -0.322.

Turning to CCAAGUAUGAGGAACGAGUTT against Creb3l3, the z-score was inactive: -0.895.

Regarding CCCACUGCAUUACUCACUCTT against Olfr873, the z-score was inactive: 0.69.

CCCAUGACCUAUGUUGUAGTT against Xpc: the z-score was inactive: -0.857.

Regarding GGAAGAGAUGAACUCUCAGTT against Sf3b2, the z-score is inactive: -3. The figure for GGGUUUAAGUAUGUUGUAATT against Exoc8 is inactive: -0.522; for GGAGGAGAAUUACUCCUUUTT against BC019367 it is inactive: -0.418; for CGGAAAACGAAUAAACUACTT against Gria2 it is inactive: -0.229. In the case of GCUACAUUCCUCAAAUACCTT against G6pdx, the z-score is inactive: 0.178. The figure for GCUAACACAACGAGAGAAGTT against Ushbp1 is inactive: -2.54; for “GGAGUGCAAGGACUUUGUGTT against 0610009H04Rik” it is inactive: -0.5. Take “GGUGGACAUGUGGAAUGAUTT against D4Bwg1540e”: the z-score is inactive: 0.377. The figure for GUGAAAACCGCCAGAUGAATT against V1rc27 is inactive: 0.82; for GCUAGAAAAUCUCUCCAACTT against Cnn2 it is inactive: -0.616; for AUACCCAACACCUAGUAACTT against Sval3 it is inactive: -1.57. The figure for GGAUUAGACUGUCUUCAGCTT against Rnf144 is inactive: 1.16.

With GGAUGACACAACUAUGACATT against Lmbr1, the z-score was inactive: 0.859.

Take GGUGGAUUCUAGCUUGUCGTT against Dusp10: the z-score was inactive: 0.122. The figure for GGCAGUGGCUAUCAUGAGATT against Dpep1 is inactive: -0.818; for CGCACUGCUAAUCAUUCCCTT against Slc35f2 it is inactive: 0.986. The figure for GCAACUAUGACCAUAAACUTT against Gabre is inactive: 0.534; for GGAACUUCUCUGUUUUAGATT against Olfr802 it is inactive: 0.774; for GGGUAACUAGAAACAGACUTT against Olfr1351 it is inactive: -1.

As for GGCGAACGGUACUUAGACUTT against Agxt2l1, the z-score was inactive: 1.37. The figure for GCGAAUGAUUGUCAGCAAATT against Gata1 is inactive: 0.405. The figure for “GGGAGAAACAAGUGUGUAATT against 6330548G22Rik” is inactive: -0.265. Consider GGGUGUGCAUUUGUACUACTT against Smad9, for which the z-score was inactive: 0.879. Turning to UUCUACGUCUGUCUUCUUATT against Olfr180, the z-score is inactive: -0.182.

Regarding GGAAGCUACAAAAAACCUCTT against Luzp1, the z-score is inactive: 0.795. The figure for GGAGCCAUUGUGAAUGUCUTT against Dcxr is inactive: -2.47; for GCUACUCUUUGUCUCAUGUTT against Hexb it is inactive: 1.52; for GGAAGAAACUUAAAUGAGUTT against Eif3s7 it is inactive: 0.944. Regarding “GCAUAAAAUCAGUGAGGCCTT against C330017I15Rik”, the z-score was inactive: 0.894. The figure for “CCUUGCUCUGGCAAUCUGATT against G930045G22Rik” is inactive: 0.504; for GGUCAACUUUGGCCUCUAUTT against Gpr142 it is inactive: 0.375; for “GGUAAUUCGGUUCAAACCATT against 4921515J06Rik” it is inactive: -1.3.

With CCCAGGUUCCGGAGAACAATT against Abcc5, the z-score was inactive: -0.555. The figure for GGGACUACCUCAUGUCAUUTT against Smad1 is inactive: 2.64; for GCACAGCGGUAAACAAAAUTT against Ywhaz it is inactive: 2.27; for “GGACACAAGAGGCCAAUAATT against 4921511C16” it is inactive: -0.974. The figure for GGGAUUCUCAGGUCACUGUTT against Pvrl4 is inactive: -1.06; for GGUUGACAUGAGUAACAUATT against Dlst it is inactive: -0.0116; for GGAAACUUUAGCAUGAAUGTT against Hmgb2l1 it is inactive: 1.83.

For GCAGAGGAGUGAAUAGAUATT against Dtx3l, the z-score was inactive: 0.293.

On to GGAUUUCAAAUCCUUCCUGTT against Shmt2, for which the z-score is inactive: -0.519. The figure for “GGACAUUGCCCACAUGACCTT against A030009H04Rik” is inactive: 1.17.
